Data as given in PubChem BioAssay AID504764 (Drosophila RNAi Screening Center, 2011)
Assay: 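Genes whose knock-down alters Notch-dependent transcription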 (primary screen). Cell system: Drosophila Kc167 cells. Reagents: long dsRNA against Drosophila genes. Duration: about 5 days (4 days dsRNA, then 24 h after transfection). Challenge: transfection of constitutively active membrane-tethered Notch lacking the extracellular domain, read 24 h later. Detection: 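Firefly luciferase from an E(spl)m3 reporter with active Notch, plus control-promoter and uninduced reporter wells for normalisation; unnormalised counts, duplicate wells a and b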. Reading the numbers: induced reporter light, run 1, well a and induced reporter light, run 1, well b: higher = more light from the Notch target reporter with active Notch; control promoter light, run 1, well a and control promoter light, run 1, well b: higher = more light from the viral control promoter (cell number, transfection, viability); uninduced reporter light, run 1, well a: higher = more light from the Notch target reporter without active Notch. Active means: 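Hit if the duplicate-averaged log2 ratio of induced to control-promoter light gives a plate-wise z beyond ±2, or induced to uninduced beyond ±1.8; weak-control or discordant-duplicate wells dropped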. Calls: active = modifier hit (raised or lowered Notch signal); inactive = not a hit.
The deposit covers about 22,000 reagents; this is a random part of those with a known target gene and a result. In the full data, 403 (1.9%) were called active. 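Unnormalised raw counts per well; ratio z-scores behind the hit calls and whether each hit raises or lowers signal are not deposited.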 Entries without a mark were called inactive. The record does not give: the amount of reagent.

mAChR-A [DRSC04702]
- induced reporter light, run 1, well a: 1.22e5
- induced reporter light, run 1, well b: 1.34e5
- control promoter light, run 1, well a: 1.44e5
- control promoter light, run 1, well b: 1.30e5
- uninduced reporter light, run 1, well a: 9645

CG8516 [DRSC16437]
- induced reporter light, run 1, well a: 70655
- induced reporter light, run 1, well b: 90085
- control promoter light, run 1, well a: 66390
- control promoter light, run 1, well b: 66755
- uninduced reporter light, run 1, well a: 5490

CG42663 [DRSC06158]
- induced reporter light, run 1, well a: 76480
- induced reporter light, run 1, well b: 78780
- control promoter light, run 1, well a: 1.29e5
- control promoter light, run 1, well b: 1.11e5
- uninduced reporter light, run 1, well a: 7055

CG42663 [DRSC06404]
- induced reporter light, run 1, well a: 87140
- induced reporter light, run 1, well b: 71485
- control promoter light, run 1, well a: 1.27e5
- control promoter light, run 1, well b: 1.12e5
- uninduced reporter light, run 1, well a: 9255

CG9040 [DRSC11053]
- induced reporter light, run 1, well a: 1.95e5
- induced reporter light, run 1, well b: 1.82e5
- control promoter light, run 1, well a: 2.75e5
- control promoter light, run 1, well b: 2.98e5
- uninduced reporter light, run 1, well a: 8655

Secp43 [DRSC00454]
- induced reporter light, run 1, well a: 1.39e5
- induced reporter light, run 1, well b: 1.23e5
- control promoter light, run 1, well a: 1.56e5
- control promoter light, run 1, well b: 1.37e5
- uninduced reporter light, run 1, well a: 7850

PGAP5 [DRSC03089]
- induced reporter light, run 1, well a: 1.64e5
- induced reporter light, run 1, well b: 2.10e5
- control promoter light, run 1, well a: 1.20e5
- control promoter light, run 1, well b: 1.31e5
- uninduced reporter light, run 1, well a: 22995

Drep2 [DRSC07528]
- induced reporter light, run 1, well a: 1.40e5
- induced reporter light, run 1, well b: 1.84e5
- control promoter light, run 1, well a: 1.17e5
- control promoter light, run 1, well b: 1.08e5
- uninduced reporter light, run 1, well a: 11795

Nnf1a [DRSC06394]
- induced reporter light, run 1, well a: 1.83e5
- induced reporter light, run 1, well b: 1.51e5
- control promoter light, run 1, well a: 3.20e5
- control promoter light, run 1, well b: 2.25e5
- uninduced reporter light, run 1, well a: 10165

Npl4 [DRSC15615]
- induced reporter light, run 1, well a: 1.27e5
- induced reporter light, run 1, well b: 1.49e5
- control promoter light, run 1, well a: 1.80e5
- control promoter light, run 1, well b: 1.54e5
- uninduced reporter light, run 1, well a: 10085

Npl4 [DRSC15616]
- induced reporter light, run 1, well a: 1.43e5
- induced reporter light, run 1, well b: 1.09e5
- control promoter light, run 1, well a: 1.20e5
- control promoter light, run 1, well b: 1.13e5
- uninduced reporter light, run 1, well a: 10550

Max [DRSC11218]
- induced reporter light, run 1, well a: 1.02e5
- induced reporter light, run 1, well b: 1.01e5
- control promoter light, run 1, well a: 60900
- control promoter light, run 1, well b: 66110
- uninduced reporter light, run 1, well a: 7525

2 entries from above in another layout.
PGAP5 [DRSC03089] — induced reporter light, run 1, well a = 1.64e5; induced reporter light, run 1, well b = 2.10e5; control promoter light, run 1, well a = 1.20e5; control promoter light, run 1, well b = 1.31e5; uninduced reporter light, run 1, well a = 22995
Drep2 [DRSC07528] — induced reporter light, run 1, well a = 1.40e5; induced reporter light, run 1, well b = 1.84e5; control promoter light, run 1, well a = 1.17e5; control promoter light, run 1, well b = 1.08e5; uninduced reporter light, run 1, well a = 11795
